Experimental data from publication PMC5737659.
No constants are given. Whether binding was seen depends on the method and setting. Binding seen in cells or lysates may run through a third protein. Some binding calls cover weakened binding; strength is not graded here. Sequences can lack the tags named with a protein.

Sequences of proteins named here, by UniProt entry; tags and fusion partners are left off. Residues count along the entry.
UniProt Q9Z2W9, residues 23-888: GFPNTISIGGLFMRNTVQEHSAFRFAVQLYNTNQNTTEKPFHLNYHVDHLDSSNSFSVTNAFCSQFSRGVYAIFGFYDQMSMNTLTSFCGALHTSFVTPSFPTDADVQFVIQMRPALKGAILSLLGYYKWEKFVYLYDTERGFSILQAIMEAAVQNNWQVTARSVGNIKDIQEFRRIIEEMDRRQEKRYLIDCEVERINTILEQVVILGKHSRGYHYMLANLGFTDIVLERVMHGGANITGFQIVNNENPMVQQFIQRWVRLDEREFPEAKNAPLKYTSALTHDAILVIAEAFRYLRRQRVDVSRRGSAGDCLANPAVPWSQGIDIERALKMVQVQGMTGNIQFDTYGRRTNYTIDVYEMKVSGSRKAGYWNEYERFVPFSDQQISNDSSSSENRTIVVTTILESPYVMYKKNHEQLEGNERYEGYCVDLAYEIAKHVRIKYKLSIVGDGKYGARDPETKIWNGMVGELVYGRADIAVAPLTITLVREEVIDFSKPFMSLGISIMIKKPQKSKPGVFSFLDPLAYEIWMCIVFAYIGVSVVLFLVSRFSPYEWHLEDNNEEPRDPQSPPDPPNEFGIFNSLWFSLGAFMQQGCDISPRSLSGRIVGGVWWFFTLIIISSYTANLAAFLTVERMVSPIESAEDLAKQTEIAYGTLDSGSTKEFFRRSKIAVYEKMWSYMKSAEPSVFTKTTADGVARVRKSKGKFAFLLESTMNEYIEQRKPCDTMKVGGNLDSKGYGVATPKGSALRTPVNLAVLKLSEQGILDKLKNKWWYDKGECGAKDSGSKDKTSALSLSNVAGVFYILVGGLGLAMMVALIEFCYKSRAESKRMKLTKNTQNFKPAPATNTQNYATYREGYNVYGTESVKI
UniProt P39087, residues 32-908: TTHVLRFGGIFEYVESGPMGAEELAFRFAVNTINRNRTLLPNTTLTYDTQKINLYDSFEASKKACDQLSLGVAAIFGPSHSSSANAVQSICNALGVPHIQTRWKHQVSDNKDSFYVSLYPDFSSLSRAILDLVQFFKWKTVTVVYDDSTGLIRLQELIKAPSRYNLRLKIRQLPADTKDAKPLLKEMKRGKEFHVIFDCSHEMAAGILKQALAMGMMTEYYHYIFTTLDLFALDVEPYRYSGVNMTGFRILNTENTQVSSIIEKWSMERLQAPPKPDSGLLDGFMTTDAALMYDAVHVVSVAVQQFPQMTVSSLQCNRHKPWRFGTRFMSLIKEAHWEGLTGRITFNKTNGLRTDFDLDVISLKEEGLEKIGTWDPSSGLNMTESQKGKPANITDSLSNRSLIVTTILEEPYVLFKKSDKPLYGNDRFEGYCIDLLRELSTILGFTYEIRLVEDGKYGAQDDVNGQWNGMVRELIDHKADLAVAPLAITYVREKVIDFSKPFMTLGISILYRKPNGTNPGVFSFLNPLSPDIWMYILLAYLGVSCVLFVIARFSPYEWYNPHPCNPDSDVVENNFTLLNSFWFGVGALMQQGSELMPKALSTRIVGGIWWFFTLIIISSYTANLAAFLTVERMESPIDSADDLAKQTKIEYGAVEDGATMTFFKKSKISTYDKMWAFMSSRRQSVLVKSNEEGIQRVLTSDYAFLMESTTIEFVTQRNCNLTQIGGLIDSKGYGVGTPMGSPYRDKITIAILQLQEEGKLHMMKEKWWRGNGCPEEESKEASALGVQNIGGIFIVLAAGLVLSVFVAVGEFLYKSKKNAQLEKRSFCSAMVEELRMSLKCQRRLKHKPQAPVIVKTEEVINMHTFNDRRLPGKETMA

Molecular target: T1, Flag-Shisa7 (mouse) (UniProt Q8C3Q5)
T1 sequence: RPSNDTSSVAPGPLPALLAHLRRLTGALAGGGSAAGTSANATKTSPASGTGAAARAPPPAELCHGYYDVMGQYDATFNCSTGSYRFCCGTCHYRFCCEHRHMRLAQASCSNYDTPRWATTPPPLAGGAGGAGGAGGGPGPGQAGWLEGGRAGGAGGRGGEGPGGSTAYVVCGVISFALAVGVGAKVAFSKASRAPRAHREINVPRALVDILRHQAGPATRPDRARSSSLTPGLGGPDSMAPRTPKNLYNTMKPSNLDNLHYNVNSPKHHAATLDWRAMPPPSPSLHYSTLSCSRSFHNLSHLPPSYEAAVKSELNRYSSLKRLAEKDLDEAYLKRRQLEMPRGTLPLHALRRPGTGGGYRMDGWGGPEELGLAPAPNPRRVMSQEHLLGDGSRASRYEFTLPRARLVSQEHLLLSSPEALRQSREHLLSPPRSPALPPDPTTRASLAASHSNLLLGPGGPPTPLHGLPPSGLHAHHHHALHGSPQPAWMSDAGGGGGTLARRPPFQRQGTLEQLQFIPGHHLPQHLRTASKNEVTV
Assay: co-IP; Flag-Shisa7 co-expressed with a glutamate receptor subunit in HEK293 cells; lysis in 1% Triton X-100, 150 mM NaCl, 25 mM HEPES pH 7.4; anti-Flag antibody overnight, Protein A/G agarose beads, four washes; immunoblot

| Substance | binding |
| --- | --- |
| GluA3 (homomeric receptor expressed in HEK293 cells) (from UniProt Q9Z2W9 23-888) | binds |
| GluK2 (expressed in HEK293 cells) (from UniProt P39087 32-908) (receptor) | binds weakly |
